In the supplement of paper PMC6924143:
The data scatter; read single values as rough.

Tested on: RAW-Blue (mouse TLR9 reporter, RAW 264.7)
Test: mTLR9 reporter activity (SEAP, QUANTI-Blue absorbance) (OD650); higher = stronger mouse TLR9 activation
Settings: 3 h
Method: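 Synthetic single-stranded 24-mer CpG ODNs were diluted in saline and added to mouse RAW-Blue cells (RAW 264.7 with an NF-kB/AP-1-inducible SEAP reporter; endogenous mouse TLR9), about 1e5 cells/well. After 3 h, SEAP in the supernatant was read with QUANTI-Blue as absorbance at 650 nm. ODN concentration and backbone chemistry are not stated; activity of 0.4 or above is the paper's high-activity class.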

Question: Which mTLR9 reporter activity does the source give for TCGCGCGCTTTCGTGCTACTGCGT [ODN185] here?
Answer: Its mTLR9 reporter activity is 0.143.

Question: With TCGCTTGACCGTTGGGCGCGGTCC [mODN75] as the sequence, how does the mTLR9 reporter activity read?
Answer: The mTLR9 reporter activity was 0.64.

Question: Which mTLR9 reporter activity does the source give for TTCGTGTTTTGCGTGCGTTTTCGT [ODN035] here?
Answer: Its mTLR9 reporter activity is 0.

Question: For TGTGCGTTGCGTCTAGACGAGCTT [ODN077], which mTLR9 reporter activity is on record?
Answer: Its mTLR9 reporter activity is 0.277.

Question: Which mTLR9 reporter activity does the source give for TGTTAGCGTTTTGCGCTTCGCGTT [ODN183] here?
Answer: The mTLR9 reporter activity was 0.126.

Question: Which mTLR9 reporter activity does the source give for TTTTAGCGTTTTGAGCTCGTGCGT [ODN002] here?
Answer: The mTLR9 reporter activity was 0.939.

Question: TCTTGCGGCGTATACTTCGCCGCG [mODN-016] was tested. Which mTLR9 reporter activity did it give?
Answer: Its mTLR9 reporter activity is 0.36.

Question: For TCGGCTCGCTTACCGCGGCATTGG [mODN048], which mTLR9 reporter activity is on record?
Answer: The mTLR9 reporter activity was 0.62.

Question: How did the mTLR9 reporter activity turn out when TCGCGTTCGCGCTCGTTGATCTGT [ODN119] was run?
Answer: The mTLR9 reporter activity was 0.255.

Question: TCGCGCGAGTGTGTTCTTCGCTTT [ODN218] was tested. Which mTLR9 reporter activity did it give?
Answer: The mTLR9 reporter activity was 0.271.

Question: How did the mTLR9 reporter activity turn out when TCCGTCCTCGGTTACGCGGGCTTC [mODN062] was run?
Answer: The mTLR9 reporter activity was 0.47.

Question: Which mTLR9 reporter activity does the source give for TTGCGTCGTATCGCGTGTCTCTGT [ODN162] here?
Answer: The mTLR9 reporter activity was 0.136.

Question: How did the mTLR9 reporter activity turn out when TCGTTCCCGACGGAGCTTCGGCTG [mODN87] was run?
Answer: The mTLR9 reporter activity was 0.58.

Question: Which mTLR9 reporter activity does the source give for TCGTGCGTTTCTGATCGCGCTTGT [ODN201] here?
Answer: Its mTLR9 reporter activity is 0.258.

Question: TCCGCGGCTTCGCGGGCGTTACTT [mODN058] was tested. Which mTLR9 reporter activity did it give?
Answer: Its mTLR9 reporter activity is 0.39.

Question: For TGCACGAGTGTTTTGTTTTGCGCT [ODN046], which mTLR9 reporter activity is on record?
Answer: The mTLR9 reporter activity was 0.209.

Question: How did the mTLR9 reporter activity turn out when TCGTTCTCGCGCGTGCGTACTGCT [ODN126] was run?
Answer: Its mTLR9 reporter activity is 0.153.

Question: Which mTLR9 reporter activity does the source give for TGTTGTGTCGTCGCGTACGTTCTT [ODN265] here?
Answer: The mTLR9 reporter activity was 0.129.

Question: TCCCGTTCGTGGGCGTTACCGCCG [mODN-019] was tested. Which mTLR9 reporter activity did it give?
Answer: Its mTLR9 reporter activity is 0.36.

Question: For TTTGCTCGACGTTCGCGTGTTCGT [ODN124], which mTLR9 reporter activity is on record?
Answer: The mTLR9 reporter activity was 0.416.

Question: TCGTTGCGCTTACGCGCTGTCGCT [ODN831] was tested. Which mTLR9 reporter activity did it give?
Answer: The mTLR9 reporter activity was 0.5.

Question: For TCGTGCGTCGCGTCACTGTCTTGT [ODN118], which mTLR9 reporter activity is on record?
Answer: Its mTLR9 reporter activity is 0.152.

Question: For TTTTGAGCGCGCGCGCAGCTTTTT [ODN022], which mTLR9 reporter activity is on record?
Answer: The mTLR9 reporter activity was 0.357.

Question: Which mTLR9 reporter activity does the source give for TTCGCGAGCTTCGTGCGCGCTCGT [ODN231] here?
Answer: Its mTLR9 reporter activity is 0.209.

Question: With TCGTTAGCGTGTCGTTTTGTTCGT [ODN148] as the sequence, how does the mTLR9 reporter activity read?
Answer: Its mTLR9 reporter activity is 0.568.

Question: How did the mTLR9 reporter activity turn out when TCGTTGCGCGCTTCAGTGCGTCGT [ODN814] was run?
Answer: The mTLR9 reporter activity was 0.366.

Question: TCGTTTCGATGCGTTCGCGCGTTT [ODN563] was tested. Which mTLR9 reporter activity did it give?
Answer: Its mTLR9 reporter activity is 0.653.

Question: For TCGCTTACGGTTTGCGAGCCGCCA [mODN-005], which mTLR9 reporter activity is on record?
Answer: The mTLR9 reporter activity was 0.44.

Question: How did the mTLR9 reporter activity turn out when TCGCTTCGCGTTTGCGTACGTGCT [ODN761] was run?
Answer: The mTLR9 reporter activity was 0.327.

Question: TTTGTTCGTTTTAGTTGCGCGCGT [ODN259] was tested. Which mTLR9 reporter activity did it give?
Answer: Its mTLR9 reporter activity is 0.154.

Question: How did the mTLR9 reporter activity turn out when TTTTAGCGCGCGTTGCTGTTTTGT [ODN049] was run?
Answer: The mTLR9 reporter activity was 0.27.

Question: TCGCGCGCGCGTGCGCTCACTGCT [ODN219] was tested. Which mTLR9 reporter activity did it give?
Answer: Its mTLR9 reporter activity is 0.236.

Question: How did the mTLR9 reporter activity turn out when TCGCCCTTGTGGTTCGACACGCGC [mODN059] was run?
Answer: Its mTLR9 reporter activity is 0.26.

Question: Which mTLR9 reporter activity does the source give for TCTCCGTTACGCGGCGCAGGACTT [mODN064] here?
Answer: The mTLR9 reporter activity was 0.26.

Question: Which mTLR9 reporter activity does the source give for TGAGCGCTAGTAGTATTGCGCGTT [ODN075] here?
Answer: Its mTLR9 reporter activity is 0.155.

Question: TCTTCGGTCGGCTTACGGCGACCA [mODN065] was tested. Which mTLR9 reporter activity did it give?
Answer: The mTLR9 reporter activity was 0.36.

Question: With TTTTCGAGCGTTTTGCAGCGCGCT [ODN004] as the sequence, how does the mTLR9 reporter activity read?
Answer: Its mTLR9 reporter activity is 0.943.

Question: With TCGTCTTCGTGCGACGCGTGCTTT [ODN200] as the sequence, how does the mTLR9 reporter activity read?
Answer: Its mTLR9 reporter activity is 0.12.

Question: How did the mTLR9 reporter activity turn out when TCGTTGCTCGTTTGCGTCGTTGAT [ODN614] was run?
Answer: Its mTLR9 reporter activity is 0.702.

Question: Which mTLR9 reporter activity does the source give for TCGTTCTTGCGACGCTCGCGTTGT [ODN826] here?
Answer: The mTLR9 reporter activity was 0.521.

Question: Which mTLR9 reporter activity does the source give for TCCTTCGGCGCCGCTTGGCGGACA [mODN83] here?
Answer: The mTLR9 reporter activity was 0.45.

Question: With TGCGCGCTGTTGCTCTCGCGTGAT [ODN254] as the sequence, how does the mTLR9 reporter activity read?
Answer: Its mTLR9 reporter activity is 0.146.

Question: Which mTLR9 reporter activity does the source give for TCGCTCGCGCGCAGCGTGTCTTCT [ODN657] here?
Answer: The mTLR9 reporter activity was 0.176.

Question: For TGTTTTGCGCTTTTGTGCGCGCGT [ODN039], which mTLR9 reporter activity is on record?
Answer: Its mTLR9 reporter activity is 0.305.

Question: Which mTLR9 reporter activity does the source give for TGAGCTGCGTTTTTTTTGCAGCGT [ODN031] here?
Answer: The mTLR9 reporter activity was 0.407.

Question: For TCGTGCGATCGCGCGTGCTTTGTT [ODN172], which mTLR9 reporter activity is on record?
Answer: Its mTLR9 reporter activity is 0.146.

Question: For TGTCGCGCTCGTGCTCGCGTTTCT [ODN191], which mTLR9 reporter activity is on record?
Answer: Its mTLR9 reporter activity is 0.165.

Question: TCGCGTGCGTTGTGTCATTCTCGT [ODN186] was tested. Which mTLR9 reporter activity did it give?
Answer: The mTLR9 reporter activity was 0.17.

Question: For TTCTGATGCGCGTCGTGCGTTGCT [ODN271], which mTLR9 reporter activity is on record?
Answer: Its mTLR9 reporter activity is 0.135.

Question: For TCGTGCGTCGTGTCGCGTTGTTCT [ODN632], which mTLR9 reporter activity is on record?
Answer: Its mTLR9 reporter activity is 0.545.

Question: TGCAGTTTTGACGCTGCGTTTTGT [ODN037] was tested. Which mTLR9 reporter activity did it give?
Answer: Its mTLR9 reporter activity is 0.336.

Question: Which mTLR9 reporter activity does the source give for TGCGCGCTTTGATGTTGTCGCGCT [ODN175] here?
Answer: The mTLR9 reporter activity was 0.098.

Question: TCGCGGCCCGCGTTCGCTGCATTC [mODN-023] was tested. Which mTLR9 reporter activity did it give?
Answer: Its mTLR9 reporter activity is 0.51.

Question: How did the mTLR9 reporter activity turn out when TCGTGCTTACGTTACGACCCCGGG [mODN99] was run?
Answer: Its mTLR9 reporter activity is 0.77.

Question: How did the mTLR9 reporter activity turn out when TCGTTGCGATCGTCTCGCTTGTGT [ODN772] was run?
Answer: The mTLR9 reporter activity was 0.822.

Question: For TTGACGAGTCTTCAGCGTAGTGTT [ODN067], which mTLR9 reporter activity is on record?
Answer: The mTLR9 reporter activity was 0.189.

Question: TCGCGTCGTTATGCGCTCGTTCGT [ODN206] was tested. Which mTLR9 reporter activity did it give?
Answer: The mTLR9 reporter activity was 0.26.

Question: TTCGTGCGTGCGTCGCATTTCGCT [ODN199] was tested. Which mTLR9 reporter activity did it give?
Answer: Its mTLR9 reporter activity is 0.181.

Question: With TGCTGTCGTGTTCGTGCTAGCTTT [ODN074] as the sequence, how does the mTLR9 reporter activity read?
Answer: Its mTLR9 reporter activity is 0.227.

Question: For TGTCGTGCTTGAGCGTCGCGCTTT [ODN266], which mTLR9 reporter activity is on record?
Answer: The mTLR9 reporter activity was 0.146.
